# Screening data

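Luminescence from an EWS-FLI1 target-promoter (NR0B1) reporter, set against a CMV-promoter reporter, two days after silencing single genes in TC32 Ewing sarcoma cells. Each siRNA was applied at 20 nM. A z-score of the log NR0B1-over-CMV signal, less the median of siRNAs with the same seed; more negative means a stronger specific loss of the NR0B1 reporter.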

The strongest results of the screen are mostly left out here. Sequences are the guide (antisense) strand, without overhang.

With UUGGGAACUUUGAUAGGGC against CSAG2 the assay gave seed-corrected z-score 0.1265.
With UGUCUAAUCAGUUGAAGGC against PYCR1 the assay gave seed-corrected z-score -0.9585.
With UCACUUUCAUGAGAGGUCC against CSGALNACT2 the assay gave seed-corrected z-score -0.06292.
With UUGGUUGCUUGAUUGUAGG against DEPDC1 the assay gave seed-corrected z-score -0.9566.
With AACUUUCCAACUACUCCCG against FADD the assay gave seed-corrected z-score 1.096.
With UCUGUGCUAUUCGUAAUUC against FAM71D the assay gave seed-corrected z-score 0.5612.
With UAUUCGUAAUAGCUCCUCC against KATNA1 the assay gave seed-corrected z-score 0.6298.
With UAUUCAGUAAAACAACCGG against ERI1 the assay gave seed-corrected z-score 0.2058.
With AUGGUGAUCAGGUAGACAC against FPR3 the assay gave seed-corrected z-score -0.3969.
With UCCAUGAUACGGAUGAAGG against POLD1 the assay gave seed-corrected z-score -0.5602.
With UGUUGAAUCCCAGGGAUCG against AIM1 the assay gave seed-corrected z-score 1.405.
With UAUAGUCCCUGGAUUGAUC against CHD9 the assay gave seed-corrected z-score 0.926.
With UAGAUAACCAAUUGCAGCU against CISD1 the assay gave seed-corrected z-score -0.9052.
With ACCAGGAUGAUAGUGUUGG against TANGO2 the assay gave seed-corrected z-score 0.9594.
With UUCUUGUAUUCGGUAGAUC against GPR171 the assay gave seed-corrected z-score -0.2061.
With ACAUCGAUUACUACGUCUG against DHX57 the assay gave seed-corrected z-score 0.8738.
With UGUCAUUCAACACCAGUGC against DAG1 the assay gave seed-corrected z-score -0.0657.
With UUCGGCUUCAUACAUGCAC against NDUFB10 the assay gave seed-corrected z-score 0.5159.
With UACUUGCGAUGGUCCACGG against FAM181A the assay gave seed-corrected z-score -1.396.
With UUCCGGCAAGCAACAGUUG against SHISA2 the assay gave seed-corrected z-score -0.4167.
With UGAAUGUCCAUGAUAGUUG against FXYD5 the assay gave seed-corrected z-score 0.5094.
With UACGUAAGCAGAGAGCCGG against TNFRSF4 the assay gave seed-corrected z-score -1.023.
With UUCCGGACUAGAACACUUC against SVEP1 the assay gave seed-corrected z-score 0.2873.
With AGCAGGAGUAGAGUGUAUG against CDH26 the assay gave seed-corrected z-score 0.1267.
With UGGUUUUCUGGGUAUCACC against HS1BP3 the assay gave seed-corrected z-score 0.5242.
With UCGUUUGAUGGGAAACUCC against PADI4 the assay gave seed-corrected z-score -0.5136.
With AUACGAUCUGCAAGAAUGC against SEC23A the assay gave seed-corrected z-score 0.5072.
With UAACAAACAGGUGAUAUAU against ATM the assay gave seed-corrected z-score -0.05463.
With UGACAAACCGGAUAAUCCC against FPR2 the assay gave seed-corrected z-score 0.003907.
With UAUCGAACUUGAUAACUGG against ALDH5A1 the assay gave seed-corrected z-score 0.6523.

2 of the entries, repeated:

Sequence	target gene	seed-corrected z-score
ACAUCGAUUACUACGUCUG	DHX57	0.8738
UACUUGCGAUGGUCCACGG	FAM181A	-1.396

Source: PubChem BioAssay AID1159506 (NCATS, 2015).